Measured values: article PMC10917850

What was measured:
Assay in all cases: co-IP; HEK293T cells co-transfected with Myc-tagged TEKT1, 2, 3 or 4 and Flag-TEKTIP1; Pierce IP Lysis Buffer; precipitated with Myc-Tag antibody and Protein A/G agarose at 4 C; blotted with anti-Flag
Myc-tagged TEKT2 = target: T1, Myc-tagged TEKT2 (UniProt Q922G7)
T1 sequence: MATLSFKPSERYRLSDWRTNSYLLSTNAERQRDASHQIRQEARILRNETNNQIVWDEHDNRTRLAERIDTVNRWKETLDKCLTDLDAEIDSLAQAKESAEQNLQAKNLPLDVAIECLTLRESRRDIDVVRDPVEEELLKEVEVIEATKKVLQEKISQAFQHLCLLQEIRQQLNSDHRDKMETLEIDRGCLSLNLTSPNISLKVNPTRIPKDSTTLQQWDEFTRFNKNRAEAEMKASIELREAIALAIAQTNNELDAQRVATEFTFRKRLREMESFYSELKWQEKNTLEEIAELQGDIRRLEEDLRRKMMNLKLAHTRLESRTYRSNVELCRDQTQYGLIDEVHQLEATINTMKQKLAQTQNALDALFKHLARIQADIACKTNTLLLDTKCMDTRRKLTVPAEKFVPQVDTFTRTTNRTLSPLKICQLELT

Myc-tagged TEKT3 = target: T2, Myc-tagged TEKT3 (UniProt Q6X6Z7)
T2 sequence: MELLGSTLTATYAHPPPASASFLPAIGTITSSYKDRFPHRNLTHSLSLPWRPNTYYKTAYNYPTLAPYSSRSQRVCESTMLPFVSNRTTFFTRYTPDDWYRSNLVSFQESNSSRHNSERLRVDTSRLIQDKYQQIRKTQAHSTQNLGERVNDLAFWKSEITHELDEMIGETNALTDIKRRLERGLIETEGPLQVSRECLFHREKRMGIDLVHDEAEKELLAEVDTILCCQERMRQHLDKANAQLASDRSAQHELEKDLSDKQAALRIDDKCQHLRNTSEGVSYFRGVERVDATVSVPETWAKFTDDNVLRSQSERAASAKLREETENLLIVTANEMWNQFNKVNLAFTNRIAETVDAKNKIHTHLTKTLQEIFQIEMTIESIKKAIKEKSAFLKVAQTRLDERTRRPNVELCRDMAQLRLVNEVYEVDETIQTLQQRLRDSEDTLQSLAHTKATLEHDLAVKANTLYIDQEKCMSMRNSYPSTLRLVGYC

Myc-tagged TEKT4 = target: T3, Myc-tagged TEKT4 (UniProt Q149S1)
T3 sequence: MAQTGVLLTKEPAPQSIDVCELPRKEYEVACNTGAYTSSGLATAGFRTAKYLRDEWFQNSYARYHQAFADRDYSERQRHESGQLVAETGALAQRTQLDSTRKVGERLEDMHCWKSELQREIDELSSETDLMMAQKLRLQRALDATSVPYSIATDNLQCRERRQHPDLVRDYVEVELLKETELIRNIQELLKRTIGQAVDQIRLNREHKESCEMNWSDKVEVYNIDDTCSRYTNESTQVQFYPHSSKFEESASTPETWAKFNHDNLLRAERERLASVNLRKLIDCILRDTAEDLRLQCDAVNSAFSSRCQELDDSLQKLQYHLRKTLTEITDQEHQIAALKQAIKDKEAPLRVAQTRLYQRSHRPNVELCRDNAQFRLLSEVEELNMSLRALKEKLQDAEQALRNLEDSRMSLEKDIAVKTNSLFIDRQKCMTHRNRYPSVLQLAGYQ

binding (Myc-tagged TEKT2): no binding
binding (Myc-tagged TEKT3): binds
binding (Myc-tagged TEKT4): no binding
Substance: Flag-tagged TEKTIP1

Results are given in words; binding and its absence hold for the method and conditions named. Binding seen in cells or lysates may run through a third protein. For part of these data: Binding can be weak; no strength is given. Where a sequence is shown, tags or fusion partners need not be part of it.
